{
  "source": "patent US9988405B2",
  "about": "“O-phenyl chalcone compounds and uses thereof” (Neopanora Bio-technology (Zhuhai) Ltd., priority 2014, dated 2018)",
  "assay_type_in_all_cases": "cell-based",
  "key": {"[1]": {"system": "human colon cancer cells SW480", "assay": "SRB anti-proliferative assay, SW480", "conditions": "SW480, 48 h, read-out: Anti-proliferative IC50, SW480", "protocol": "(§1) The present example evaluated the anti-tumor activity of the molecules provided by the present invention. The present example mainly used a method with SRB (sulforhodamine B) dying, in which proteins in the cell were stained with SRB dye to determine protein content in the cell so as to characterize cell growth density. Firstly, the test compound was formulated into a stock solution (10 mM), which was stored at 4° C. in a refrigerator. Prior to beginning the assay, the stock solution was diluted with DMSO into a series of different concentrations. The required concentrations were obtained by diluting with complete growth medium. Well growing cells were seeded in a 96-well plate (5000 cells/well, 100 uL) and cultured in an incubator at 37° C., 5% CO2, and 90% RH. 24 h later, the prepared compound solution (100 μL) was slowly added to cell solution in the 96-well plate, and the well with DMSO (final concentration 0.5%) instead of the drug was used as a drug free control. The plate was incubated for 48 h. In addition, a day 0 plate that was drug free was directly detected after cell seeded in the plate for 24 h. The 96-well plate was taken out and added with trichloroacetic acid (50 μL, final concentration 10%). […]\n(§2) The plate was washed with ultrapure water and air-dried. […] The optical density (OD) was recorded on a TECAN Infinite M200 Pro multimode reader at 515 nm. […]"}, "[2]": {"system": "human breast cancer cells MCF7", "assay": "SRB anti-proliferative assay, MCF-7", "conditions": "MCF7, 48 h, read-out: Anti-proliferative IC50, MCF-7", "protocol": "as §1, §2"}, "[3]": {"system": "human nasopharyngeal carcinoma cells CNE2", "assay": "SRB anti-proliferative assay, CNE2", "conditions": "CNE-2, 48 h, read-out: Anti-proliferative IC50, CNE2", "protocol": "as §1, §2"}, "[4]": {"system": "human lung cancer cells A549", "assay": "SRB anti-proliferative assay, A549", "conditions": "A549, 48 h, read-out: Anti-proliferative IC50, A549", "protocol": "as §1, §2"}},
  "data": [
    {"smiles": "COc1cc2c(c(OC)c1OC)-c1ccc(OC)c(=O)cc1[C@@H](NC(C)=O)CC2", "note": "[COL, colchicine, reference compound]", "values": [
      {"measurement": "IC50", "setting": "[1]", "result": 0.033, "unit": "µM"},
      {"measurement": "IC50", "setting": "[2]", "result": 0.019, "unit": "µM"},
      {"measurement": "IC50", "setting": "[3]", "result": 0.034, "unit": "µM"},
      {"measurement": "IC50", "setting": "[4]", "result": 0.036, "unit": "µM"}
    ]}
  ]
}
